Literature values in patent publication US9579358B2, “Compositions for binding to amyloid proteins” (LANCASTER UNIVERSITY BUSINESS ENTERPRISES LIMITED, priority 2011, dated 2017).
Some results were stated once for a whole list of compounds, not compound by compound.

Chains of the proteins cited; added tags and fusions are not shown. Residues count along the entry.
UniProt P05067, 672-713 limits assumed: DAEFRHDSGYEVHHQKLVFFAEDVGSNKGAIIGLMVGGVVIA

Biological target: immobilized Aβ1-42 monomers and fibrils (Homo sapiens, UniProt P05067)
Settings: SPR, read-out: dissociation constant (Kd); cited from earlier work

Substance	Kd
Ac-rGffvlkGr-NH2 [RI-OR2]	9 to 29 µM
RGKLVFFGR [OR2]	9 to 29 µM
